Laboratory results: PubChem BioAssay AID504774 (Drosophila RNAi Screening Center, 2011)

Test: 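Fly genes whose loss alters survival after alkylation damage to DNA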 (primary screen)
Cell system: Drosophila Kc167 cells
Knock-down reagent: long dsRNA against Drosophila genes, about 0.25 µg dsRNA per well
Timing: about 6 days: 3 days knock-down, then 3 days with or without MMS
Conditions: methyl methanesulphonate 0.004% (w/v) for 3 days after knock-down
Read-out: 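Viability in wells given MMS, read as ATP luminescence, normalised by quantiles plate by plate and averaged across replicates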
Reading the numbers: mean viability with MMS and viability with MMS: higher = more surviving cells after MMS
The deposit covers about 23,000 reagents; shown is a random part of those that have a named target and a result. 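Values are quantile-normalised luminescence on an arbitrary scale; higher means more cells surviving MMS.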 Reagents against one gene are numbered here. Names joined by + are all predicted targets of the reagent.

| gene | reagent no. | mean viability with MMS | viability with MMS, replicate 1 | viability with MMS, replicate 2 |
| --- | --- | --- | --- | --- |
| Cht11 | 1 | 3.60e6 | 4.05e6 | 4.12e6 |
| Pu | 1 | 3.26e6 | 3.58e6 | 3.29e6 |
| CG12912 | 1 | 2.57e6 | 3.55e6 | 3.55e6 |
| TyrRII | 1 | 3.50e6 | 4.10e6 | 3.85e6 |
| fd3F (retired record) + Crg-1 | 1 | 3.45e6 | 3.90e6 | 3.94e6 |
| RpL22-like | 1 | 3.61e6 | 4.05e6 | 4.13e6 |
| sol | 1 | 3.68e6 | 4.19e6 | 4.07e6 |
| CG7017 | 1 | 3.51e6 | 4.14e6 | 3.80e6 |
| l(3)80Fj | 1 | 2.65e6 | 4.31e6 | 4.27e6 |
| l(3)80Fj | 2 | 3.72e6 | 4.24e6 | 4.10e6 |
| CG2972 | 1 | 3.42e6 | 3.85e6 | 3.96e6 |
| CG3655 | 1 | 3.54e6 | 4.14e6 | 3.89e6 |
| CG3655 | 2 | 3.61e6 | 4.06e6 | 4.12e6 |
| CG3655 | 3 | 3.55e6 | 4.05e6 | 4.02e6 |
| CG3655 | 4 | 3.63e6 | 4.05e6 | 4.13e6 |
| ND-B14.7 | 1 | 3.34e6 | 3.69e6 | 3.82e6 |
| CG15034 | 1 | 3.55e6 | 4.14e6 | 3.94e6 |
| GstD2 | 1 | 3.77e6 | 4.20e6 | 4.18e6 |
| CG13442 | 1 | 3.79e6 | 4.16e6 | 4.25e6 |
| CG4238 | 1 | 3.46e6 | 3.92e6 | 3.95e6 |
| CG4238 | 2 | 3.51e6 | 3.94e6 | 4.02e6 |
| tey | 1 | 3.55e6 | 4.06e6 | 3.88e6 |
| tey | 2 | 3.30e6 | 3.86e6 | 3.78e6 |
| cwo | 1 | 3.79e6 | 4.25e6 | 4.17e6 |
| Tim17b1 | 1 | 3.62e6 | 4.08e6 | 4.12e6 |
| TppII | 1 | 3.30e6 | 3.76e6 | 3.72e6 |
| Rnp4F | 1 | 3.58e6 | 4.04e6 | 4.11e6 |
| Gbeta13F | 1 | 3.58e6 | 4.17e6 | 4.08e6 |
| Ilp2 | 1 | 3.43e6 | 3.90e6 | 3.89e6 |
| CG13527 | 1 | 3.61e6 | 4.11e6 | 4.09e6 |
| Arpc1 | 1 | 3.52e6 | 4.05e6 | 3.93e6 |
| CSN8 | 1 | 3.53e6 | 4.07e6 | 3.91e6 |
| ave | 1 | 3.70e6 | 4.21e6 | 4.06e6 |
| aub | 1 | 3.61e6 | 3.99e6 | 4.23e6 |
| CG9514 | 1 | 3.55e6 | 4.04e6 | 4.01e6 |
| CG9514 | 2 | 3.68e6 | 4.15e6 | 4.13e6 |
| Prx1 | 1 | 3.51e6 | 4.01e6 | 3.93e6 |
| NimB2 | 1 | 3.46e6 | 3.96e6 | 3.94e6 |
| Tango2 | 1 | 3.53e6 | 4.15e6 | 3.74e6 |
| Tango2 | 2 | 3.44e6 | 3.98e6 | 3.88e6 |
| Acp36DE | 1 | 3.42e6 | 3.99e6 | 3.78e6 |
| CG4229 | 1 | 3.46e6 | 3.79e6 | 4.03e6 |
| CG8950 | 1 | 3.38e6 | 3.87e6 | 3.82e6 |
| CG16935 | 1 | 3.55e6 | 4.06e6 | 4.09e6 |
| Art8 | 1 | 3.70e6 | 4.13e6 | 4.25e6 |
| eEFSec | 1 | 3.54e6 | 4.02e6 | 4.00e6 |
| Tsen34 + Trl | 1 | 3.52e6 | 4.03e6 | 3.94e6 |
| CG8861 | 1 | 3.38e6 | 3.78e6 | 3.90e6 |
| CG8861 | 2 | 3.52e6 | 4.05e6 | 3.95e6 |
| CG1418 | 1 | 3.45e6 | 3.95e6 | 3.90e6 |
| CG10561 | 1 | 3.58e6 | 4.02e6 | 4.12e6 |
| CG12617 | 1 | 3.52e6 | 3.86e6 | 4.12e6 |
| CG3793 | 1 | 3.61e6 | 4.02e6 | 4.20e6 |
| wde | 1 | 3.50e6 | 3.94e6 | 3.97e6 |
| CG15631 | 1 | 3.68e6 | 4.10e6 | 4.18e6 |
| CG9265 | 1 | 3.57e6 | 3.99e6 | 4.10e6 |
| CG9265 | 2 | 3.55e6 | 3.97e6 | 4.09e6 |
| CG8329 | 1 | 3.57e6 | 4.10e6 | 4.01e6 |
| CG15043 | 1 | 3.30e6 | 3.63e6 | 3.73e6 |
| Gfat1 | 1 | 3.45e6 | 4.01e6 | 3.84e6 |
| Ir94h | 1 | 3.61e6 | 4.17e6 | 4.01e6 |
| CG7906 | 1 | 3.83e6 | 4.30e6 | 4.30e6 |
| CG14227 | 1 | 2.06e6 | 4.24e6 | 4.14e6 |
| CG11656 | 1 | 3.60e6 | 4.04e6 | 4.16e6 |
| CG14431 | 1 | 3.43e6 | 3.97e6 | 3.82e6 |
| ClC-c | 1 | 3.56e6 | 3.96e6 | 4.11e6 |
| Rad1 + Sws1 | 1 | 3.49e6 | 3.86e6 | 4.04e6 |
| CG14795 | 1 | 3.44e6 | 3.91e6 | 3.89e6 |
| CG17568 | 1 | 3.73e6 | 3.86e6 | 3.88e6 |
| qkr58E-1 | 1 | 3.49e6 | 3.95e6 | 3.72e6 |
| CG12998 | 1 | 3.47e6 | 3.70e6 | 4.15e6 |
| HDAC6 | 1 | 3.58e6 | 3.94e6 | 4.29e6 |
| msl-1 | 1 | 3.55e6 | 3.98e6 | 4.07e6 |
| Ir48a | 1 | 3.50e6 | 3.90e6 | 4.06e6 |
| side-IV + CG17025 (retired record) | 1 | 3.84e6 | 4.12e6 | 4.57e6 |
| CG8004 | 1 | 3.58e6 | 4.05e6 | 4.07e6 |
| Itgbn | 1 | 3.49e6 | 3.89e6 | 4.03e6 |
| Pal2 | 1 | 3.66e6 | 4.09e6 | 4.20e6 |
| CG14177 (retired record) | 1 | 3.75e6 | 4.16e6 | 4.07e6 |
| CG13946 | 1 | 3.56e6 | 4.03e6 | 4.04e6 |
| CG40245 (retired record) | 1 | 2.36e6 | 4.07e6 | 3.95e6 |
| Pxn | 1 | 3.29e6 | 3.69e6 | 3.86e6 |
| CG13793 | 1 | 3.54e6 | 4.12e6 | 3.92e6 |
| Plap | 1 | 3.65e6 | 4.12e6 | 4.19e6 |
| Ythdf | 1 | 3.67e6 | 4.15e6 | 4.17e6 |
| Ythdf | 2 | 3.68e6 | 4.14e6 | 4.19e6 |
| CG10126 | 1 | 3.90e6 | 4.32e6 | 4.52e6 |
